Test results taken from paper PMC7819943, “Rice protein-binding microarrays: a tool to detect cis-acting elements near promoter regions in rice”.
Some of the results follow.

By UniProt entry, the sequences of proteins in these tests, tags left out.
UniProt Q0JBA9, entry or part of it: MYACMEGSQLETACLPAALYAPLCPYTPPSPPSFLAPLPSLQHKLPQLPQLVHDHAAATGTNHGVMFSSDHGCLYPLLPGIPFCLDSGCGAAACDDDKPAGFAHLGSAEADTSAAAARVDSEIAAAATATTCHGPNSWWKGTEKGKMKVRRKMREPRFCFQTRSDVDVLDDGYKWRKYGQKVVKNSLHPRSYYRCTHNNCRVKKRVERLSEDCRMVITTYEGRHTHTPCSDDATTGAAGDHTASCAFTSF

These sequences were tested against OsWRKY34 (Oryza sativa, UniProt Q0JBA9 1-250) (assay: protein-binding microarray (RPBM); PBS, 2% BSA, 51.3 ng/ul salmon testes DNA, 50 uM zinc acetate, 200 nM TF, 25 C, 1 h; high values mean tight binding). Details: protein: recombinant; tags: N-terminal polyhistidine and DsRed monomer fusion (pET32a); label: CyDye5-dUTP incorporated in the synthesized complementary strand; 3' TTTTT single-stranded linker to array surface; dsDNA, one strand shown.
Outline: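 Transcription factors were made in E. coli BL21-CodonPlus as N-terminal fusions to a polyhistidine tag and DsRed, then purified on Ni–NTA. After primer extension with Cy5-dUTP and blocking with 2% BSA, a custom Agilent array was exposed for 1 h at 25 °C to 200 nM protein in PBS, 2% BSA, salmon testes DNA and 50 µM zinc acetate. Washed arrays were scanned on an Axon 4000B, and the binding signal is per-feature fluorescence intensity in arbitrary units.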

Sequence	binding signal
GCAGTTTTCAATACCATTTCTGGTGTTTGTTTTGTACCGCCGGAGTCACCTAGTGCAG	8780 fluorescence intensity (a.u.)
ACTCCTCTATTTGGTAGTATTGTTTTTCGGCTCGTGAGTTCGGAGTCACCTAGTGCAG	8670 fluorescence intensity (a.u.)
TCACCATGTGCGAGCCGCCAATTCAAACTCTTTGTCTGTTCGGAGTCACCTAGTGCAG	12300 fluorescence intensity (a.u.)
ACCAGCTTCAACTCGGCATCTCCAAAAATTTTATCCACCTCGGAGTCACCTAGTGCAG	8470 fluorescence intensity (a.u.)
AACTTGGCCTCTTTTCATGCCTCTGAACCTACGAGTTCACCGGAGTCACCTAGTGCAG	9370 fluorescence intensity (a.u.)
GGAACTACCACAGTGGTGCTTCTTGCTGCTGAGTTCCTGACGGAGTCACCTAGTGCAG	8270 fluorescence intensity (a.u.)
TCCATACAAACCATACACATTGTGACCATGACACTCAATCCGGAGTCACCTAGTGCAG	8100 fluorescence intensity (a.u.)
TCGGGATTTCTTATTTGGGAGGATATGTTTCGGGTTTCTACGGAGTCACCTAGTGCAG	10600 fluorescence intensity (a.u.)
CATGACCACCGTCGGCTACGGCGACTTCGTCCCGCCAACGCGGAGTCACCTAGTGCAG	8100 fluorescence intensity (a.u.)
ACCAACTTCCCAATCTCACCCACCCCACCAATCCCCACCACGGAGTCACCTAGTGCAG	8540 fluorescence intensity (a.u.)
GAGCCGCGCCGGTGCCACCACTCGCGCCGCCGCTCCGGCGCGGAGTCACCTAGTGCAG	8150 fluorescence intensity (a.u.)
TATTTTTTGGTTGTCCTTTGTTTTTTTAAAAAATATTTGTCGGAGTCACCTAGTGCAG	8170 fluorescence intensity (a.u.)
ATGGGGCTCTTTTGGTTTGTTTGGTAGTTGGGTGGTGATGCGGAGTCACCTAGTGCAG	15500 fluorescence intensity (a.u.)
GTCAGTTCGCCGGCCGCCGCCGCCTCCGACGATCCCCATCCGGAGTCACCTAGTGCAG	8950 fluorescence intensity (a.u.)
TACTATCTTAGGTTGTGTTCTGTTATCAGCTTTTCTAACCCGGAGTCACCTAGTGCAG	8310 fluorescence intensity (a.u.)
CGCACATCTGCCTCCTGTTCACGCGAACCCACCACCCATGCGGAGTCACCTAGTGCAG	9260 fluorescence intensity (a.u.)
ACGAGATCCACCATGCAGCCTTCACGCGACAGTCGCACATCGGAGTCACCTAGTGCAG	8040 fluorescence intensity (a.u.)
CCCTGTTTTCCACGGAGGAGCATAAATCCTGATCATTTCTCGGAGTCACCTAGTGCAG	8700 fluorescence intensity (a.u.)
GCTCATGATCTCAATCCTCGTCTGTTTTTTCTCACGAAATCGGAGTCACCTAGTGCAG	10700 fluorescence intensity (a.u.)
ATGATGTCGGGCTCCACCCGTGGGTCTGCTACTGCCGCTCCGGAGTCACCTAGTGCAG	8450 fluorescence intensity (a.u.)
TGATTATGCCATCCATTTTTCTAGAGGTCATTGAATTTACCGGAGTCACCTAGTGCAG	10100 fluorescence intensity (a.u.)

Sequence	binding signal
CTCCTCCGCGTAGCATCGCTGTTGAATCGTTATCCTTTCTCGGAGTCACCTAGTGCAG	9320 fluorescence intensity (a.u.)
TACTTTCTTTTATGAATATGTTTCTTTCAATATGGCATTACGGAGTCACCTAGTGCAG	8570 fluorescence intensity (a.u.)
CCGAGAGATTTTGATTTGTTGCTGTAGATTGATTGTGTGACGGAGTCACCTAGTGCAG	9780 fluorescence intensity (a.u.)
CGTTTTCATCCTTATCTATATCAATATTTTTTTTGTCTTACGGAGTCACCTAGTGCAG	9730 fluorescence intensity (a.u.)
GCCTACATGACAGCGACTCGCCGCCTTCACTGATTCGTGACGGAGTCACCTAGTGCAG	8300 fluorescence intensity (a.u.)
CCGGCGGGTGAGAAAAGTTTCGGGCGGGGTCAGCGACGGTCGGAGTCACCTAGTGCAG	8980 fluorescence intensity (a.u.)
TTTGTCGAAATATAATCATGTGTGGCCTTGTTGTAAAGATCGGAGTCACCTAGTGCAG	8140 fluorescence intensity (a.u.)
CTTTCTTATTGCAACTCCAGACGATTGGCTGTGGTCCCTCCGGAGTCACCTAGTGCAG	8070 fluorescence intensity (a.u.)
GTGGTTGGTTGGTGCGGTTGCGGCGGGTGATCGAACGATGCGGAGTCACCTAGTGCAG	12100 fluorescence intensity (a.u.)
TATACCTCTAATTTGTCTGATCTGTACTGCAGGCCCTACACGGAGTCACCTAGTGCAG	9480 fluorescence intensity (a.u.)
GAGCTCTGCAGTTACCGTCTATATATATTACCGTTAGTCACGGAGTCACCTAGTGCAG	10200 fluorescence intensity (a.u.)
CAGTAATTGTCACTATCTTATTACACATTATTCTGTCCAGCGGAGTCACCTAGTGCAG	8060 fluorescence intensity (a.u.)
ATTCAGTATGCAGCTTGTGCCACCTTCAGGTTCTTGGCTTCGGAGTCACCTAGTGCAG	8050 fluorescence intensity (a.u.)
GTGAGTTAGTTTGGTGTGTTCATGTATGTATCAATGCATGCGGAGTCACCTAGTGCAG	8220 fluorescence intensity (a.u.)
CATCGGCTGACATCGACGTCGGCTCTTTGTTGATCATCATCGGAGTCACCTAGTGCAG	8090 fluorescence intensity (a.u.)
TTAGGGATCTGACTGTTACGCACCCATACCATTTCTAACACGGAGTCACCTAGTGCAG	8200 fluorescence intensity (a.u.)
TCATCCTCACTCTCTCTGCACACTGCTTCTCGCTCCCGCTCGGAGTCACCTAGTGCAG	12100 fluorescence intensity (a.u.)
CCCCAGCCCCAGCCCCAGCCCGACCACTTGCTCGCCGACGCGGAGTCACCTAGTGCAG	8360 fluorescence intensity (a.u.)
AGTCAATGTGAACTTATTCCTTTCTTTCTCTTTTTTTTTTCGGAGTCACCTAGTGCAG	8150 fluorescence intensity (a.u.)
ACTACGAGTTTTTCTTGTTGAATGTGTCATCCACGTTGTTCGGAGTCACCTAGTGCAG	9510 fluorescence intensity (a.u.)
CGCATTTCACTACGGTTTTTCAGGCTATGTTTAGTTCAGACGGAGTCACCTAGTGCAG	8340 fluorescence intensity (a.u.)

As entered above.
Value of CATCGGCTGACATCGACGTCGGCTCTTTGTTGATCATCATCGGAGTCACCTAGTGCAG under binding signal: 8090 fluorescence intensity (a.u.)
Value of CCCCAGCCCCAGCCCCAGCCCGACCACTTGCTCGCCGACGCGGAGTCACCTAGTGCAG under binding signal: 8360 fluorescence intensity (a.u.)
Value of TACTTTCTTTTATGAATATGTTTCTTTCAATATGGCATTACGGAGTCACCTAGTGCAG under binding signal: 8570 fluorescence intensity (a.u.)
